The list shows a part of the results.

From PMC7819943, “Rice protein-binding microarrays: a tool to detect cis-acting elements near promoter regions in rice” come the findings set out here.

The experiment deals with T1, OsSMF1 (Oryza sativa, UniProt Q6ZLB0 1-436).
T1 sequence: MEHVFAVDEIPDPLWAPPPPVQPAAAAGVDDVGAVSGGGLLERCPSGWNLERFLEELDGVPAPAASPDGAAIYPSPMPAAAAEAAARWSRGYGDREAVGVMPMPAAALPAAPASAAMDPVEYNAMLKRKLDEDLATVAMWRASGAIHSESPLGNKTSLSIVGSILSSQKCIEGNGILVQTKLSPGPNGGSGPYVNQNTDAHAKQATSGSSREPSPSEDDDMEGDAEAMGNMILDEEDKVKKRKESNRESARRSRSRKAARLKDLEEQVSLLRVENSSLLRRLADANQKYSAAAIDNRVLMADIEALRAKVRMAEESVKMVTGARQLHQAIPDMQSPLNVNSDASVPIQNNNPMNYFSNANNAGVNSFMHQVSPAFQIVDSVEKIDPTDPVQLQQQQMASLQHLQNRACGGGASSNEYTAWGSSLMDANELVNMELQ
As to the kind of experiment: protein-binding microarray (RPBM); PBS, 2% BSA, 51.3 ng/ul salmon testes DNA, 50 uM zinc acetate, 200 nM TF, 25 C, 1 h; high values mean tight binding. Particulars: protein: recombinant; tags: N-terminal polyhistidine and DsRed monomer fusion (pET32a); chain copies: 2; label: CyDye5-dUTP incorporated in the synthesized complementary strand; 3' TTTTT single-stranded linker to array surface; dsDNA, one strand shown. The method in brief: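 Ni–NTA purification followed expression in E. coli BL21-CodonPlus of transcription factors fused N-terminally to a polyhistidine tag and DsRed. At 200 nM in PBS with 2% BSA, salmon testes DNA and 50 µM zinc acetate, the protein was incubated for 1 h at 25 °C with a custom Agilent array that had been primer-extended with Cy5-dUTP and blocked with 2% BSA. After washing, the array was read on an Axon 4000B scanner. The binding signal is per-feature fluorescence intensity in arbitrary units.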
For the sequence “CGAATCTTGAAGCAAATCTGACGGTTCGTGCCTCCTGAGTCGGAGTCACCTAGTGCAG”, the binding signal is 3500 fluorescence intensity (a.u.). On to “AACGGCTCAATAACAGCATAGATGACGTGAGTGGAAAATCCGGAGTCACCTAGTGCAG”, for which the binding signal is 3180 fluorescence intensity (a.u.). For the sequence “AGCTCCTATGTCAGCTCCCGCCGCCGCCAGCCGCCACCACCGGAGTCACCTAGTGCAG”, the binding signal was 3390 fluorescence intensity (a.u.). As for “GTTGTACATGAGTTGTACAACTGGGTCATATGTATCATCTCGGAGTCACCTAGTGCAG”, the binding signal was 3270 fluorescence intensity (a.u.). To “ATTGTTATTGACCTAGCCACGCACGCGATATAATGTTTCTCGGAGTCACCTAGTGCAG” belongs 5290 fluorescence intensity (a.u.); to “AATCCGCTCAGTTTGTACTACGTATTATTATTCATTCTTCCGGAGTCACCTAGTGCAG”, 3500 fluorescence intensity (a.u.).

Turning to “CCTCGTTCCCTTTCGGCCACGTCACCATCTCCCCTTCCGACGGAGTCACCTAGTGCAG”, the binding signal is 13100 fluorescence intensity (a.u.). To “AGAAAGTATCTAAACATCCTTGATACTAGGTACGTATCTCCGGAGTCACCTAGTGCAG” belongs 34800 fluorescence intensity (a.u.); to “ATGTGCGGGGAGTTCGCAGGATGACGACAGATGTATTATGCGGAGTCACCTAGTGCAG”, 4640 fluorescence intensity (a.u.). Regarding “GCCCAGTCGCCTGGTACCTTGCGCCCTTGCCTGCTCTGCCCGGAGTCACCTAGTGCAG”, the binding signal was 36700 fluorescence intensity (a.u.). Consider “CCGTGCTTAACTCATGTTAGAATGCAATGTGCTACATCCACGGAGTCACCTAGTGCAG”, for which the binding signal was 3590 fluorescence intensity (a.u.). Consider “TCAAAGCTAGGCACCACGCGTCAACGCATCATCTCCTTCACGGAGTCACCTAGTGCAG”, for which the binding signal was 4860 fluorescence intensity (a.u.). For the sequence “TGAATGCCACCTAGATGCCACGTAAGCTAAAACTGGACTCCGGAGTCACCTAGTGCAG”, the binding signal was 13200 fluorescence intensity (a.u.). Consider “CAGGTAGTGTGCAGTGTAGGTCGTCTGAGTCGGTCAGTTTCGGAGTCACCTAGTGCAG”, for which the binding signal was 4150 fluorescence intensity (a.u.). Turning to “GGTAGCTCACCCATTGCCATTCTTTCAAGCTCCCCGTCCACGGAGTCACCTAGTGCAG”, the binding signal was 3790 fluorescence intensity (a.u.).

In the case of “AAACGCTGACAAAACACTGGTCACCGGAAGGCGATAGGTGCGGAGTCACCTAGTGCAG”, the binding signal was 4990 fluorescence intensity (a.u.). For “TGGTTGGCCGTTGGGCGTGTCATGTGGGCAGGCAGATCACCGGAGTCACCTAGTGCAG”, the binding signal was 9270 fluorescence intensity (a.u.).

As to “ATTATGTAATGCCTGTTGATGTCAGACCACTCCAAATGCTCGGAGTCACCTAGTGCAG”, the binding signal is 3480 fluorescence intensity (a.u.). Take “ACAGCACCACCTTGTGCGACCCCACCACCTTGTCCAGCGTCGGAGTCACCTAGTGCAG”: the binding signal is 4130 fluorescence intensity (a.u.). To “TCTTTGCTAGGATTGAGGACGGTGATGACGCAGAGTTTCGCGGAGTCACCTAGTGCAG” belongs 8970 fluorescence intensity (a.u.); to “CGCTCCTCCCCACCTATGCCTTGTCGAGTTGTCATCTTGTCGGAGTCACCTAGTGCAG”, 4700 fluorescence intensity (a.u.); to “TGGCAAACAGACGATGACGGTGCCACAGATGGATGGCGATCGGAGTCACCTAGTGCAG”, 3160 fluorescence intensity (a.u.).

For the sequence “GTGCACACAGCTGGCACGGTGCTATGGGGCGCCACGTAGGCGGAGTCACCTAGTGCAG”, the binding signal was 21900 fluorescence intensity (a.u.). Consider “ATGGTCTTGGTTTTGGGCGGCACGGTGGCACCTTTGTGCCCGGAGTCACCTAGTGCAG”, for which the binding signal is 3700 fluorescence intensity (a.u.). As to “TCGTTTCTTTGCCAGCTGCGCATCCATTCAGCCGGTCGTACGGAGTCACCTAGTGCAG”, the binding signal was 4100 fluorescence intensity (a.u.). In the case of “GGTGTGTGAAGTGGTGTGTGTCCTCTTCCCAACCAGAAATCGGAGTCACCTAGTGCAG”, the binding signal was 3460 fluorescence intensity (a.u.).

“GAACACTGGGAGTTACGTGCTGCTTGGTAACATATATGCTCGGAGTCACCTAGTGCAG”: the binding signal is 22800 fluorescence intensity (a.u.). As for “GCCGGATGCGGCGGCGGCGCCGCTCCTTCGGTGGCGTGGCCGGAGTCACCTAGTGCAG”, the binding signal is 4280 fluorescence intensity (a.u.). The result for “GATAGTAATGTGACAACATTCTTCTTCTTCTTCTTCTTTACGGAGTCACCTAGTGCAG” reads 3550 fluorescence intensity (a.u.). On to “CAATAGTCACAAAGCTGCAAGAACTCCACGTCTCGCATCACGGAGTCACCTAGTGCAG”, for which the binding signal is 3760 fluorescence intensity (a.u.). Take “GGCCGCGTAGGCGCCACATCAGCCAAAACCACCATCAAAACGGAGTCACCTAGTGCAG”: the binding signal was 4590 fluorescence intensity (a.u.). Consider “GTCCGTCGATTGTCTCTCCATGTCAGCAATACCAAATATGCGGAGTCACCTAGTGCAG”, for which the binding signal is 6860 fluorescence intensity (a.u.). For the sequence “TCTGTAAGATGAAGCCTCTTAGCAGAGATGACTCTCTAAACGGAGTCACCTAGTGCAG”, the binding signal was 6940 fluorescence intensity (a.u.). Consider “CTAGTAATGAATAGAAGACCTATGACATGTACAGTCAATGCGGAGTCACCTAGTGCAG”, for which the binding signal is 4470 fluorescence intensity (a.u.). Take “ACCTTGAAAAGCCATCTCAACCAGTTTACACACGTCACAGCGGAGTCACCTAGTGCAG”: the binding signal is 6450 fluorescence intensity (a.u.). With “TAATAACCTAATACTGGGCCATGACTAAGCTAATGAATATCGGAGTCACCTAGTGCAG”, the binding signal is 29600 fluorescence intensity (a.u.). The result for “CCACCACTGCATGCGTCACCCCTCTCTATCCCTACCGCCCCGGAGTCACCTAGTGCAG” reads 11600 fluorescence intensity (a.u.); that for “TCGCACCTCCATTTCGCTACACGTACACGCCCTCCCACCGCGGAGTCACCTAGTGCAG”, 4400 fluorescence intensity (a.u.).

For “GCATGGGAGGAGGCCGGGAGGAGGAGGCGGCGGCGGCGGCCGGAGTCACCTAGTGCAG”, the binding signal is 3760 fluorescence intensity (a.u.). As to “CCTTTTGCCGGTGACAACGGCTCCACGTTGGTTTTGATTGCGGAGTCACCTAGTGCAG”, the binding signal is 6280 fluorescence intensity (a.u.). For the sequence “CATGCCTTGACCACATGCATGCTGACGTGGCAATCTAATCCGGAGTCACCTAGTGCAG”, the binding signal was 30800 fluorescence intensity (a.u.).

For “GCACGGCCGGATCCCGCCGGCGCCGGCCACGATGAACGCGCGGAGTCACCTAGTGCAG”, the binding signal was 3360 fluorescence intensity (a.u.).
